Earlier results as cited in patent publication US20020041888A1, “Method and composition for treating cancer by administration of apoptosis-inducing chemotherapeutic agents” (priority 2000, published 2002).

Conditions: without solubilizing carrier

- water solubility: substantially water insoluble
SMILES: CC(=O)O[C@H]1C(=O)[C@@]2(C)[C@H]([C@H](OC(=O)c3ccccc3)[C@]3(O)C[C@H](OC(=O)[C@H](O)[C@@H](NC(=O)c4ccccc4)c4ccccc4)C(C)=C1C3(C)C)[C@]1(OC(C)=O)CO[C@@H]1C[C@@H]2O [paclitaxel, Paclitaxel]
